According to PubChem BioAssay AID2551 (National Center for Advancing Translational Sciences (NCATS), 2010):
The whole screen tested about 310,000 compounds, of which about 17,000 (5.5%) were called active. Inconclusive results, whose numbers are uncertain, are shown with a selection of clear calls. Calls follow the shape of the dose curve; as a rule, active = well fitted inhibition curve with a large enough effect; inconclusive = small, poorly fitted or top-dose-only effect, or effect the other way; inactive = no such curve, though single readings can be large or run the other way. Potencies beside an inconclusive call are fits to weak or partial responses and may not hold up.
% is scaled to controls: 0 for no effect and ±100 for the full control effect; potency is read from the fitted curve at half-maximal effect.
Also: nearly all actives have a fitted effect of over 60% in size.

Sequences of proteins named here, by UniProt entry; tags and fusion partners are left off. A change or cut given only in a name is not applied to a line headed by its entry.
UniProt P51450: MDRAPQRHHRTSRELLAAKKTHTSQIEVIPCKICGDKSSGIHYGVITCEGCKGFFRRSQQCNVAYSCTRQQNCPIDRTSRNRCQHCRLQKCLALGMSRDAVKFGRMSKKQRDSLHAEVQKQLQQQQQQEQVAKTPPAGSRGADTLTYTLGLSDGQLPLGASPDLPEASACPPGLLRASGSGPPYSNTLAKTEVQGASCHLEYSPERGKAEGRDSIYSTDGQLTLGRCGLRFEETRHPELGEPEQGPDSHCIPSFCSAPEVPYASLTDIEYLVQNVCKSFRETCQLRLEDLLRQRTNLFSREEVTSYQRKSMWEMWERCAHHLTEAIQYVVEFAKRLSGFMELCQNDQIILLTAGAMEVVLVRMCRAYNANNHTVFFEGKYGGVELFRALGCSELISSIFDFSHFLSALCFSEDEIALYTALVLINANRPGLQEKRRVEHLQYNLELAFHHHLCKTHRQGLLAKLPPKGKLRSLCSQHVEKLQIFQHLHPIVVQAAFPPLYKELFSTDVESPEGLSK

What follows are compounds tested against Nuclear receptor ROR-gamma (Mus musculus) (UniProt P51450) (assay: qHTS for inhibitors of ROR gamma transcriptional activity). Settings: Drosophila S2 Gal4-RORgamma UAS-luciferase reporter, 20 h; activity change, negative = inhibition: at 53.6 µM (top of the series).
Outline: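 Luminescence from a UAS-regulated Photinus luciferase reporter in stably transfected Drosophila Schneider cells is measured; decreased signal marks ROR gamma inhibition. Fusion expression is induced by 700 uM copper sulfate for 20 hr.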
For `CCN1C(=NCc2ccc(OC)cc2)N[C@@H](CCc2ccccc2)[C@H](C(=O)NCc2ccc(OC)cc2)[C@H]1C`, the Potency was inconclusive: 17.8 µM [inhibitor, single point]. With `Cc1ccc2nc(-c3ccsc3)c(NC3CCCC3)n2c1` the Potency was inconclusive: 7.94 µM [inhibitor, partial curve]. With `Cc1ccc(S(=O)(=O)c2c(CO)c(-c3ccccc3)nn2C)cc1` the Potency was “inactive”. For `C/C=C\C1=C(CO)[C@H](O)[C@H]2OC2[C@@H]1O` (stereo not given in full), the activity change, negative = inhibition was inactive: -0.334% [at 10 µM]. With `COCCN(C(=S)Nc1ccc(OC)c(Cl)c1)C1CCN(C(C)C)CC1` the Potency was “inactive”. With `CCCc1nc(SCC(=O)c2ccc(F)cc2)c2ccccc2n1` the Potency was inconclusive: 20 µM [inhibitor, single point]. In the case of `COc1ccc(Cc2nnc(NC(=O)Nc3cccc(OC)c3)s2)cc1`, the Potency is reported as “inactive”. `COc1cc(/C=C2\SC(=S)N(CCC(=O)N3CCCCC3)C2=O)cc(OC)c1OC` was tested, and the Potency was inconclusive: 35.5 µM [inhibitor, single point]. In the case of `O=c1[nH]nc(-c2ccc(F)cc2)cc1Cc1ccccc1`, the Potency is reported as “inactive”. For `CC(NC(=O)Nc1ccc2c(c1)OCO2)C1CCCO1` (stereo not given), the Potency was inconclusive: 0.0562 µM [activator, full curve, poor fit]. For `COC(=O)c1ccc2nc(C)cc(Nc3ccc(N(C)C)cc3)c2c1`, the Potency was inconclusive: 20 µM [activator, partial curve, poor fit]. With `Clc1ccc2nnnc(-c3ccccc3)c2c1` the Potency was inconclusive: 20 µM [inhibitor, single point]. With `O=C1NC(=O)/C(=C\c2ccc(Oc3ccc([N+](=O)[O-])cn3)cc2)S1` the Potency was inconclusive: 12.6 µM [activator, single point]. `CN1CCC(Oc2ccccc2Sc2ccc(C(F)(F)F)cc2)CC1` was tested, and the Potency was “inactive”. `Cc1[nH]c2ccccc2c1/C=N/Nc1nc(Nc2ccccc2)nc(N2CCOCC2)n1` was tested, and the Potency was inconclusive: 35.5 µM [activator, partial curve]. For `NS(=O)(=O)c1cccc(-n2cnnn2)c1`, the Potency was “inactive”. `O=C1C(Cl)=C(Nc2ccccc2)C(=O)c2ccccc21` was tested, and the Potency was active: 12.6 µM. With `O=C(N/N=C/c1ccco1)c1cc(-c2cccs2)[nH]n1` the Potency was inconclusive: 1.12 µM [activator, full curve, poor fit]. With `Cc1ccsc1/C=N/N1CCN(Cc2ccccc2)CC1` the Potency was inconclusive: 3.98 µM [inhibitor, full curve]. With `CC(C)(C)NC(=O)CSC(=Nc1ccccc1F)NC#N` the Potency was inconclusive: 15.8 µM [inhibitor, single point]. `CCCOc1ccc(-c2nnn(CC(=O)N3CCCC(C)C3)n2)cc1` (stereo not given) was tested, and the Potency was inconclusive: 35.5 µM [activator, single point]. For `CCCn1c(=O)c(C(=O)NCCCc2ccccc2)c(O)c2ccccc21`, the Potency was inconclusive: 22.4 µM [inhibitor, single point]. With `Cc1ccc(C(=O)N2CCN(c3ccc(C(F)(F)F)cn3)CC2)cc1` the Potency was inconclusive: 31.6 µM [activator, single point]. With `COc1ccc(CN(C(=O)CSc2nnc(-c3ccc(F)cc3)o2)c2ccc(F)cc2)cc1` the Potency was “inactive”. For `CC(C)c1ccc(NC(=O)c2cc(Br)ccc2Br)cc1`, the Potency was inconclusive: 11.2 µM [activator, single point]. `COC(=O)C1=CN(Cc2ccc(OC)c(OC)c2)C=C(C(=O)OC)C1c1cccc(O)c1` was tested, and the Potency was inconclusive: 15.8 µM [activator, partial curve]. In the case of `CCOC(=O)c1ccc(NC(=S)N2CCSC2c2c(F)cc(F)cc2F)cc1` (stereo not given), the Potency is reported as active: 12.6 µM. In the case of `COC(=O)c1cccc(NC(=S)NC(C)C)c1`, the Potency is reported as inconclusive: 12.6 µM [inhibitor, single point]. For `Cc1cc(C)nc(SCC(=O)NC2=NN=C(c3ccc(Br)cc3)CS2)n1`, the Potency was inconclusive: 35.5 µM [inhibitor, single point]. `CC(=O)c1ccc(NC(=O)CSc2nc(C)cc(C)c2C(N)=O)cc1` was tested, and the Potency was inconclusive: 17.8 µM [activator, single point]. For `COc1ccccc1/C=C/C(=O)/C=C/c1ccccc1O`, the Potency was inconclusive: 35.5 µM [inhibitor, single point]. `C/C(N)=C(/C#N)C(=O)CSc1nn(-c2ccc(Cl)cc2)c(=S)s1` was tested, and the Potency was inconclusive: 25.1 µM [inhibitor, single point]. In the case of `CCOc1oc(-c2ccc(OC)cc2)nc1C(F)(F)F`, the Potency is reported as inconclusive: 35.5 µM [inhibitor, single point]. With `COC(=O)C1=C(NC(=O)COc2ccc3ccccc3c2)CCS1` the Potency was inconclusive: 0.0063 µM [activator, full curve, poor fit]. In the case of `O=c1[nH]c(C2CCCN(S(=O)(=O)c3ccccc3F)C2)nc2c1nnn2Cc1ccccc1Cl` (stereo not given), the Potency is reported as inconclusive: 11.2 µM [activator, partial curve]. In the case of `c1ccc(OCCCn2nnc(-c3ccncc3)n2)cc1`, the Potency is reported as inconclusive: 31.6 µM [activator, single point]. In the case of `COC(CNC(=O)C1CCC(CNS(=O)(=O)c2c(C)cc(C)cc2C)CC1)OC` (stereo not given), the Potency is reported as “inactive”. `CC1(C)COC(/C=C/c2cccc([N+](=O)[O-])c2)=N1` was tested, and the Potency was inconclusive: 20 µM [inhibitor, single point]. `CCCOc1ccc(-c2c(C(=O)N/N=C/c3ccco3)nnn2-c2nonc2N)cc1` was tested, and the Potency was active: 11.2 µM. With `CCOc1ccc(S(=O)(=O)N2CCCC(C(=O)Nc3ccccc3)C2)cc1` (stereo not given) the Potency was inconclusive: 35.5 µM [activator, single point]. With `COCCNC(=S)Nc1ccc2nc(N3CCOCC3)cc(C)c2c1` the Potency was inconclusive: 2.24 µM [inhibitor, partial curve]. With `COC1=C2C[C@@H](C)C[C@H](OC)[C@H](O)[C@@H](C)/C=C(\C)[C@H](OC(N)=O)[C@@H](OC)/C=C\C=C(/C)C(=O)NC(=CC1=O)C2=O` the Potency was inconclusive: 4.47 µM [inhibitor, full curve, poor fit]. With `CC(C)Oc1ccc(CNC(=S)Nc2ccccc2)cc1Cl` the Potency was active: 11.2 µM. With `CSc1cccc(NC(=S)N(CCN(C)C)C(C)c2ccccn2)c1` (stereo not given) the Potency was active: 17.8 µM. In the case of `CC(C)(C)c1nc(SCC(=O)Nc2ccc(N3CCOCC3)cc2)c2ccccc2n1`, the Potency is reported as inconclusive: 11.2 µM [activator, single point]. With `Cc1cccc(Oc2cc([N+](=O)[O-])cc3c2C(=O)Nc2ccccc2O3)c1` the Potency was inconclusive: 11.2 µM [activator, partial curve]. In the case of `O=C(Nc1ccccc1F)C1CCN(S(=O)(=O)c2cccc3nonc23)CC1`, the Potency is reported as “inactive”. In the case of `COC(=O)C(CC(=O)c1cccc(OC)c1)c1ccc(F)cc1` (stereo not given), the Potency is reported as “inactive”. With `Cc1cc(C)n(CCC(=O)N/N=C/c2ccc(O)cc2O)n1` the Potency was inconclusive: 12.6 µM [inhibitor, single point]. `NC1=NC(c2ccc(Br)cc2)n2c(nc3ccccc32)N1` (stereo not given) was tested, and the Potency was “inactive”. For `O=C(Nc1ccc(Br)cc1)c1ccc2ncsc2c1`, the Potency was inconclusive: 35.5 µM [inhibitor, single point]. With `O=C1CC(c2ccco2)CC2=C1C=Nc1ccccc1N2` (stereo not given) the Potency was “inactive”. `Cc1ccc(NC(=S)NCc2ccc3[nH]c4c(c3c2)CCCC4)cc1` was tested, and the Potency was active: 7.94 µM. For `CC(C)N(C(=O)COC(=O)CNS(=O)(=O)c1ccccc1F)c1ccccc1`, the Potency was inconclusive: 15.8 µM [inhibitor, single point]. In the case of `Cc1cc(C(=O)CCl)c(C)n1CCc1ccc(F)cc1`, the Potency is reported as inconclusive: 35.5 µM [inhibitor, single point]. In the case of `Cc1ccc(O)c(C(=O)c2cnc3c(c2)COc2ccc(C)cc2-3)c1`, the Potency is reported as inconclusive: 35.5 µM [activator, single point]. With `Cc1cccc(OCc2n[nH]c(=S)n2Cc2ccccc2)c1` the Potency was active: 2 µM. In the case of `CCC(=O)N1CCc2cc(S(=O)(=O)NCCCN(CC)Cc3ccccc3)ccc21`, the Potency is reported as inconclusive: 5.62 µM [activator, single point]. For `Cc1nn2c(N)csc2nc1=O`, the Potency was “inactive”. In the case of `COc1cc(/C=N/Nc2ccc(F)cc2F)cc(OC)c1OC`, the Potency is reported as inconclusive: 10 µM [activator, partial curve]. For `COc1ccccc1NC(=O)Cn1nnc(C(=O)NCc2cccs2)c1N`, the Potency was “inactive”. With `O=C(Nc1cccc(Cl)c1)N(Cc1nc2ccccc2c(=O)[nH]1)Cc1cccs1` the Potency was inconclusive: 35.5 µM [inhibitor, single point]. With `CC(C)OCCCN1CN(S(=O)(=O)c2ccccc2)c2nc3ccccc3nc21` the Potency was “inactive”. With `CC(C)c1csc(CN2CCC(CCC(=O)NCC3CCCO3)CC2)n1` (stereo not given) the Potency was “inactive”. `COc1ccc2c(c1)O[C@H](c1ccc3c(c1)OCO3)[C@@H](OC(=O)NCc1ccco1)C2=O` was tested, and the Potency was inconclusive: 35.5 µM [inhibitor, single point]. `COc1ccc(/C=C2\S/C(=N/S(=O)(=O)c3cccs3)NC2=O)cc1` was tested, and the Potency was inconclusive: 35.5 µM [activator, single point]. In the case of `COc1ccc(C(=O)COc2cccc(NC(=O)c3ccco3)c2)cc1`, the Potency is reported as inconclusive: 12.6 µM [activator, partial curve]. `CCCn1c(SCC(=O)N2c3ccccc3Sc3ccccc32)nc2ccccc21` was tested, and the Potency was inconclusive: 17.8 µM [inhibitor, single point]. In the case of `C#Cc1cccc(NC(=O)CSc2nnc(-c3ccc(C(F)(F)F)cn3)o2)c1`, the Potency is reported as inconclusive: 25.1 µM [inhibitor, single point]. `Cc1cccc(-c2nc(NCCCN(C)C)c3ccccc3n2)c1` was tested, and the Potency was inconclusive: 2.24 µM [activator, single point].
